Measured data: PubChem BioAssay AID1259290 (Sanger Institute, 2017)

- Screen: 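Identify kinases needed for colorectal cancer cell survival, with or without anchor drugs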 (primary screen)
- Cells: human SNUC1 colorectal cancer cells
- Knock-down reagent: siRNA pool against human genes
- Challenge: anchor drugs BYL719 1 µM, cetuximab 5 µg/ml or trametinib 10 nM, or DMSO vehicle alone
- Read-out: 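Cell viability relative to a non-targeting siRNA control, replicate-averaged, as robust z-score for knock-down alone, plus a synergy score for each anchor drug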
- Reading the numbers: viability z-score, siRNA alone: higher = more viable cells; low values mean essential gene; viability vs control, siRNA alone: higher = more viable cells
- Call rule: 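a knock-down without drug scoring a robust z under -3 counts as essential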
- Calls: active = essential: knock-down alone cut viability (z below -3); inactive = no clear viability loss with knock-down alone
Shown is one part, drawn at random, of 794 reagents. In the full data, 9 (1.1%) got an active call. 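Calls rest on knock-down alone, not drug synergy; synergy above 0.15 was grouped apart and does not affect calls.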 Entries without a mark were called inactive. Viability is capped at 1. Further read-outs or replicates are left out here. Not given: the amount of reagent, the time to read-out.

NEK2 | viability z-score, siRNA alone: 0.936; viability vs control, siRNA alone: 1
TSKS | viability z-score, siRNA alone: 0.936; viability vs control, siRNA alone: 1
WEE1 | viability z-score, siRNA alone: -1.31; viability vs control, siRNA alone: 0.798
TYRO3 | viability z-score, siRNA alone: 0.936; viability vs control, siRNA alone: 1
RBKS | viability z-score, siRNA alone: 0.936; viability vs control, siRNA alone: 1
MAP3K4 | viability z-score, siRNA alone: 0.936; viability vs control, siRNA alone: 1
CALM1 | viability z-score, siRNA alone: -1.92; viability vs control, siRNA alone: 0.743
CDK13 | viability z-score, siRNA alone: 0.936; viability vs control, siRNA alone: 1
PAK6 | viability z-score, siRNA alone: -0.927; viability vs control, siRNA alone: 0.832
ALK | viability z-score, siRNA alone: 0.626; viability vs control, siRNA alone: 0.972
MAPK14 | viability z-score, siRNA alone: -0.291; viability vs control, siRNA alone: 0.889
EIF2AK3 | viability z-score, siRNA alone: 0.029; viability vs control, siRNA alone: 0.918
AAK1 | viability z-score, siRNA alone: 0.558; viability vs control, siRNA alone: 0.966
AKT2 | viability z-score, siRNA alone: -0.392; viability vs control, siRNA alone: 0.88
PIK3R2 | viability z-score, siRNA alone: 0.278; viability vs control, siRNA alone: 0.941
JAK1 | viability z-score, siRNA alone: 0.473; viability vs control, siRNA alone: 0.958
CAMK2N1 | viability z-score, siRNA alone: -0.708; viability vs control, siRNA alone: 0.852
CSNK1G3 | viability z-score, siRNA alone: 0.64; viability vs control, siRNA alone: 0.973
STK38 | viability z-score, siRNA alone: -2.33; viability vs control, siRNA alone: 0.706

An excerpt from above, showing only “viability z-score, siRNA alone”:
PIK3R2	0.278
JAK1	0.473
